# Reference: PubChem BioAssay AID540303 (National Center for Advancing Translational Sciences (NCATS), 2011)
# Among all 330,000 compounds or so, about 1,000 (0.3%) were called active. The inconclusive results got no clear call from the source; some entries with a clear call stand among them for comparison. Calls come from the whole dose curve; as a rule, active = well fitted inhibition curve with a large enough effect; inconclusive = small, poorly fitted or top-dose-only effect; inactive = no such curve, though single readings can be large or run the other way; tested in mouse RAW 264.7 cells. Potencies beside an inconclusive call are fits to weak or partial responses and may not hold up.
# Test: qHTS for Inhibitors of Cell Surface uPA Generation; note: nearly all actives have a fitted effect of over 55% in size
# Settings: cell surface uPA generation assay; series mostly up to 38.3 µM; activity change, negative = inhibition: at the top concentration
# Procedure, shortened: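 RAW 264.7 cells, 4000/well, given compound (1:5 dilutions, up to 38.3 uM final) and incubated 24 h at 37 C. Blocked uPA-dependent LF entry keeps ATP high; ATPlite luminescence read, 5 s exposure.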
# % is set by controls: 0 for no effect and ±100 for the full control effect; potency is the fitted concentration of half-maximal effect.
Compound,Potency,"activity change, negative = inhibition"
O=C(c1cnn2c(C(F)(F)F)cc(-c3ccc(F)cc3)nc12)N1CCc2ccccc2C1,"inconclusive: 11.2 µM [inhibitor, partial curve, poor fit]",
CC1(C)Cc2c(cnn2-c2cccc(F)c2)C(NC(=O)c2csnn2)C1 (centres undefined),,inactive: -2.61%
CCc1cccc(C)c1NC(=O)CCCN1C(=O)NC(C)(C)C1=O,"inconclusive: 11.2 µM [inhibitor, partial curve, poor fit]",
c1ccc(CN(Cc2ccco2)C(c2ccncc2)c2nnnn2C2CCCC2)cc1 (centres undefined),,inactive: 1.27%
C/C(=C\C(=O)c1ccccc1)NNc1nc2ccccc2s1,,inactive: -1.99%
CC(NCC1(N2CCOCC2)CCCCC1)C(=O)N1CCc2ccccc21 (centres undefined),,inactive: 0.51%
Nc1ccc2oc3ccc(N)cc3c(=O)c2c1,"inconclusive: 8.91 µM [inhibitor, partial curve]",
Cc1cccc(N2CCN(C(=S)c3ccc4c(c3)OCO4)CC2)c1,"inconclusive: 5.62 µM [inhibitor, partial curve, poor fit]",
COc1ccccc1C(=O)NC(=O)COC(=O)CNC(=O)c1ccccc1F,,inactive: 1.81%
Cc1ccc(C)c(NC(=O)c2ccc3c(=O)n4c(nc3c2)CCC4)c1,"inconclusive: 7.08 µM [inhibitor, partial curve, poor fit]",
Cc1ccc(C(=O)N/C(=C\c2ccc(-c3ccc(Br)cc3)o2)C(=O)NCCCN(C)C)cc1,"inconclusive: 28.2 µM [inhibitor, single point]",
Cc1ccc(OCc2n[nH]c(=S)n2Cc2ccccc2)cc1,,inactive: -1.2%
Cc1cccc(CN2CCN(C(=S)Nc3ccccc3)CC2)c1,"inconclusive: 7.94 µM [inhibitor, partial curve, poor fit]",
CN(C)C(=O)c1ccc(NC(=O)COC(=O)C2(c3ccccc3)CCCC2)cc1,"inconclusive: 0.0141 µM [inhibitor, full curve, poor fit]",
COc1cccc(/C=N/NC(=O)CNC(=O)/C=C\c2ccccc2)c1O,"inconclusive: 1 µM [inhibitor, single point]",
O=C(CSc1ccc(Br)cc1)NC1CCCCCC1,"inconclusive: 3.55 µM [inhibitor, partial curve, poor fit]",
O=C(NCCc1ccccn1)c1ccc(OC2CCN(CCc3ccccc3)CC2)cc1,,inactive: -31.4%
Cn1ccnc1/C(=N\NC(=O)c1ccccc1)c1cccc([N+](=O)[O-])c1,,inactive: -3.61%
Cc1ccc(-n2nc(C)c(NC(=O)CCl)c2C)cc1C,,inactive: -9.23%
CC[N+]1(CC)CC2=Cc3c(ccc4ccccc34)CC2C1 (centres undefined),,inactive: -1.43%
CN(C)S(=O)(=O)c1cc(NC(=O)COC(=O)/C=C/c2ccco2)ccc1Cl,"inconclusive: 7.08 µM [inhibitor, partial curve, poor fit]",
COc1ccc(NC(=O)c2ccco2)cc1NC(=O)COc1ccccc1,"inconclusive: 1.41 µM [inhibitor, single point]",
COc1cccc(CN2CCC(C(=O)Nc3ccc(-c4cccc(C)c4)cc3)CC2)c1O,"inconclusive: 7.08 µM [inhibitor, partial curve, poor fit]",

# In the list so far, four contain a furan ring, fused or not.
Compound,Potency,"activity change, negative = inhibition"
c1ccc(CN(Cc2ccco2)C(c2ccncc2)c2nnnn2C2CCCC2)cc1 (centres undefined),,inactive: 1.27%
Cc1ccc(C(=O)N/C(=C\c2ccc(-c3ccc(Br)cc3)o2)C(=O)NCCCN(C)C)cc1,"inconclusive: 28.2 µM [inhibitor, single point]",
CN(C)S(=O)(=O)c1cc(NC(=O)COC(=O)/C=C/c2ccco2)ccc1Cl,"inconclusive: 7.08 µM [inhibitor, partial curve, poor fit]",
COc1ccc(NC(=O)c2ccco2)cc1NC(=O)COc1ccccc1,"inconclusive: 1.41 µM [inhibitor, single point]",

# Continuation.

Compound,Potency,"activity change, negative = inhibition"
COc1cc(-c2n[nH]c(=S)n2-c2ccc(C)cc2)cc(OC)c1OC,"inconclusive: 4.47 µM [inhibitor, partial curve, poor fit]",
COc1nc(NCc2cccnc2)nc(NC2CCCCC2)n1,,inactive: -4.37%
COc1ccccc1N1CCN(C(=O)/C=C/c2cccc([N+](=O)[O-])c2)CC1,,inactive: 0.995%
COc1ccc(/C=N/Nc2cc(C)nc(N3CCOCC3)n2)cc1OC,,inactive: -1.06%
CCN(CC)S(=O)(=O)c1cccc(C(=O)c2c(C)cc3ccccn23)c1,"inconclusive: 22.4 µM [inhibitor, single point]",
CCC(C)[C@H]1CN=C(N)N1CCc1cccc2ccccc12 (some centres undefined),,inactive: -21.9%
Cc1ccccc1NC(=O)/C=C/c1ccc([N+](=O)[O-])s1,,inactive: -9.85%
CS(=O)(=O)N(CC(=O)NCc1ccco1)c1cccc([N+](=O)[O-])c1,"inconclusive: 7.08 µM [inhibitor, partial curve, poor fit]",
Cc1[nH]nc(-c2ccc(O)cc2O)c1-c1ccc(Cl)cc1,,inactive: -3.2%
NCCCCCc1cn(CC(=O)NCCCCCCCCCCC(=O)N2CCNCC2)nn1,"inconclusive: 31.6 µM [inhibitor, single point]",
NCCCn1c(C(=O)c2cc(Cl)c(N)c(Cl)c2)c2ccccc2[n+]1[O-],"inconclusive: 11.2 µM [inhibitor, partial curve, poor fit]",
COc1ccc(C(=O)NC2CCCc3c2cnn3-c2cc(F)cc(F)c2)c(OC)c1OC (centres undefined),"inconclusive: 11.2 µM [inhibitor, single point]",
Cc1ccc(CN2C(=O)C(CC(C)C)Nc3ncnc(N4CCOCC4)c32)cc1 (centres undefined),,inactive: 0.786%
CCOc1ccc2nc(N3CCCC(C(=O)NCCCN4CCOCC4)C3)sc2c1 (centres undefined),"inconclusive: 14.1 µM [inhibitor, single point]",
O=[N+]([O-])c1ccc(/C=C/c2ccc3cccc(O)c3n2)cc1,"inconclusive: 7.08 µM [inhibitor, partial curve, poor fit]",
O=C(CNC(=O)c1cccs1)Nc1ccc2c(c1)OCCO2,"inconclusive: 8.91 µM [inhibitor, single point]",
N#CC(C#N)=Cc1cccn1-c1ccc(C(=O)O)cc1,,inactive: 0.462%
O=C1Nc2ccccc2/C1=C\C(=O)c1ccccc1,"inconclusive: 10 µM [inhibitor, single point]",
CCOc1ccccc1OCC(=O)Nc1nnc(C)s1,,inactive: 15.1%
COc1ccccc1NS(=O)(=O)c1ccc(-c2cnc(C3CC3)o2)cc1,"inconclusive: 0.0158 µM [inhibitor, full curve, poor fit]",
COc1cc(/C=N/N2C(=O)c3ccccc3NC2(C)c2cccc([N+](=O)[O-])c2)cc(Br)c1O (centres undefined),,inactive: -9.79%
O=C1C(Cl)=C(N2CCC(C(=O)O)CC2)C(=O)c2ccccc21,"inconclusive: 8.91 µM [inhibitor, single point]",
CCN(CC)S(=O)(=O)c1ccc(-c2nnc3sc4cccc(C)c4n23)cc1,,inactive: -13.8%

Compound,Potency,"activity change, negative = inhibition"
CN(CCNC(=O)C1CC(=O)N(C2CCCC2)C1)Cc1ccccc1 (centres undefined),"inconclusive: 5.01 µM [inhibitor, single point]",
O=c1c(O)c(-c2ccccc2)oc2ccccc12,"inconclusive: 28.2 µM [inhibitor, single point]",
COc1ccc(-c2c([C@H]3[C@H]4C=CC[C@@H](C)[C@@H]4C(=O)N3Cc3ccccc3)ccc3ccccc23)cc1,"inconclusive: 14.1 µM [inhibitor, single point]",
Cn1c2ccccc2c(=O)c2ccc(NCCc3cccs3)cc21,"inconclusive: 10 µM [inhibitor, partial curve, poor fit]",
O=C(CCl)N1CCN(S(=O)(=O)c2ccc3c(c2)OCCCO3)CC1,"inconclusive: 5.01 µM [inhibitor, partial curve, poor fit]",
O=C(O)Cn1c(O)c(C2=c3ccccc3=NC2=O)sc1=O,,inactive: -7.65%
COc1ccccc1-c1cn[nH]c1-c1ccc(OCc2ccc(F)cc2)cc1O,,inactive: -11.8%
Cc1ccc(NC2=CC(=O)CC(C)(C)C2)cc1F,"inconclusive: 3.55 µM [inhibitor, partial curve, poor fit]",
COc1ccc(NC(=O)Cn2nnc(C(=O)NCc3ccccc3)c2N)c(OC)c1,"inconclusive: 7.08 µM [inhibitor, partial curve, poor fit]",
Cc1ccc(C)c(NC(=O)c2ccccc2NS(=O)(=O)c2cc([N+](=O)[O-])ccc2C)c1,"inconclusive: 8.91 µM [inhibitor, partial curve, poor fit]",
C/C(=N/NC(=O)CNC(=O)c1ccco1)c1ccco1,,inactive: 0.376%
COc1ccc(-c2cc(C(=O)NN)[nH]n2)cc1OC,active: 10 µM,
COc1cc(CNc2ccc(O)cc2)cc(Br)c1OCc1ccccc1,"inconclusive: 8.91 µM [inhibitor, partial curve, poor fit]",
CCC1Nc2ncnc(N3CCc4ccccc4C3)c2N(Cc2ccc(Cl)cc2)C1=O (centres undefined),"inconclusive: 12.6 µM [inhibitor, single point]",
Cc1ccc(-c2nc(CS(=O)CC(=O)N3CCN(c4ncccn4)CC3)c(C)o2)cc1 (centres undefined),"inconclusive: 12.6 µM [inhibitor, single point]",
COc1ccc(OC)c(COC(=O)c2cc([N+](=O)[O-])ccc2N2CCOCC2)c1,"inconclusive: 5.01 µM [inhibitor, partial curve, poor fit]",
COc1ccc(-n2c(C)cc(C(=O)Cn3nc(C(=O)O)c4ccccc4c3=O)c2C)cc1,,inactive: 7.46%
COc1cc(OC)c2c(-c3cccc(-c4ccc(OC)c(F)c4)c3)cc(=O)oc2c1,"inconclusive: 0.891 µM [inhibitor, full curve, poor fit]",
COc1ccc(C(=O)NCCS(=O)(=O)NCc2ccco2)cc1,"inconclusive: 28.2 µM [inhibitor, single point]",
O=C(NNC(=O)c1ccccc1O)c1cccc(Br)c1,"inconclusive: 12.6 µM [inhibitor, single point]",
CCOc1ccc(CCNC(=O)/C=C/c2ccco2)cc1OCC,"inconclusive: 2 µM [inhibitor, full curve, poor fit]",
Oc1ccc(N=Nc2ccc3ccccc3c2)cc1,"inconclusive: 3.98 µM [inhibitor, partial curve, poor fit]",
COC(C[C@@H]1O[C@H]1C(=O)[C@@H](C)OCc1ccccc1)OC,"inconclusive: 7.08 µM [inhibitor, partial curve, poor fit]",
